The record followed here is publication PMC7862700.

The chains behind the UniProt entries cited, without tags or fusion partners. Where a name states a change or a piece, a line headed by the entry shows the natural chain unless it says otherwise.
UniProt Q00613: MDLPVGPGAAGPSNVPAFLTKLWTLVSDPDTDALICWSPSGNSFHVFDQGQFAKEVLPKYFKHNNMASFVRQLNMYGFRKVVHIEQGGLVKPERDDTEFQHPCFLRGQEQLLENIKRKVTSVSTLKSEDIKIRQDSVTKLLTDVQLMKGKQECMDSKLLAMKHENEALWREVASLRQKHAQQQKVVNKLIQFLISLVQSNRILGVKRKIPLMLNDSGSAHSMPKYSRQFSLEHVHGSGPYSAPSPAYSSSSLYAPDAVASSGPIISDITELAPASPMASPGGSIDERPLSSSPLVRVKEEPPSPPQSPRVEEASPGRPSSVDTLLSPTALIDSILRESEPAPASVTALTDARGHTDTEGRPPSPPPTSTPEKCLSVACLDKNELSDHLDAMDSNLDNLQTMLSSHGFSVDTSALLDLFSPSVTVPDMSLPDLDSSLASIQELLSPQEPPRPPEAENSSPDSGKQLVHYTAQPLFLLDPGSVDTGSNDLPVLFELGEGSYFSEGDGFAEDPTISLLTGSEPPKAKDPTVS

Experiment [1] concerns the target HSF1 (UniProt Q00613). The experiment is described as follows: DAPPL (digital affinity profiling via proximity ligation, sequencing). The conditions noted are these: 10 mM Tris-HCl pH 7.5, 50 mM NaCl, 1 mM DTT, 4% glycerol, room temperature, 30 min; GST-TFs on glutathione beads, 16-mer random dsDNA library, 0.1% …; high values mean tight binding; double strand, one strand shown; scale: fold enrichment (6-mer frequency, TF over GST control).

For experiment [2], the target named is T1, ELF2 (UniProt Q15723).
T1 sequence: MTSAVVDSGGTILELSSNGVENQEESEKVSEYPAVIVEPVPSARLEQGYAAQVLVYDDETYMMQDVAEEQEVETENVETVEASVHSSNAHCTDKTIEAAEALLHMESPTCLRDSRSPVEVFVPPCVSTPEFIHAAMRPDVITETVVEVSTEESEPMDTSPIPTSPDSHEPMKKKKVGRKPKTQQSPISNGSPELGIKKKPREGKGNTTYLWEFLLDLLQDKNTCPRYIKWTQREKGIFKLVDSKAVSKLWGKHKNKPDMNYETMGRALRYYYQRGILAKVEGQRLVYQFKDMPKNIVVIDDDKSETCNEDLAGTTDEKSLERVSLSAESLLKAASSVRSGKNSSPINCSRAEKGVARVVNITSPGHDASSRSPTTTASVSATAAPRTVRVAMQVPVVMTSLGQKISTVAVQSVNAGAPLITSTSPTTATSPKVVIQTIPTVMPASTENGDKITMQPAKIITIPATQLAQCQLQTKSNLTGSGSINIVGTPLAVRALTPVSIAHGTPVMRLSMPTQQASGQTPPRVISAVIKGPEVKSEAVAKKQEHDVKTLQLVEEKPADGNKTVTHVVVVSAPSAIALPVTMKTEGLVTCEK
The description is as above. The conditions noted are these: 10 mM Tris-HCl pH 7.5, 50 mM NaCl, 1 mM DTT, 4% glycerol, room temperature, 30 min; GST-TFs on glutathione beads, 16-mer random dsDNA library, 0.1% …; high values mean tight binding; double strand, one strand shown; scale: fold enrichment (6-mer frequency, TF over GST control).

The entries are a selection whose mix differs from that of the whole data set. For some assays here: At the low end of the ranking the order means little. The list shows a part of the results. For some assays here: Construct or isoform of the protein are uncertain.

GCAGTG: the binding signal in experiment [1] was determined as 0.447; in experiment [2], 0.524.

Consider TCGTGA, for which the results for the binding signal in experiment [1] and in experiment [2] were 0.428 and 0.309, respectively.

For CGGTAC, the binding signal in experiment [1] turned out to be 0.642; in experiment [2], 0.967.

Take TGAGTC: the binding signal stood at 0.204 in experiment [1] and 0.191 in experiment [2].

For the sequence GAGCAG, the values for the binding signal in experiment [1] and in experiment [2] were 0.511 and 0.591, respectively.

In the case of GTAGCC, the binding signal in experiment [1] was 0.747; in experiment [2], 0.909.

Take GTGTAT: the binding signal in experiment [1] came out at 0.773; in experiment [2], 0.95.

GCAGTC: the figures for the binding signal in experiment [1] and in experiment [2] were 0.367 and 0.45, respectively.

For CGGGGC, the binding signal is 0.454 in experiment [1] and 0.591 in experiment [2].

With CGGGAG, the figures for the binding signal in experiment [1] and in experiment [2] were 0.206 and 0.203, respectively.

Regarding TCGGAA, the results for the binding signal in experiment [1] and in experiment [2] were 0.506 and 0.594, respectively.

For the sequence AGTCTG, the binding signal came out at 0.596 in experiment [1] and 0.584 in experiment [2].

Take CAGGTG: the binding signal turned out to be 0.474 in experiment [1] and 0.515 in experiment [2].

For CAAAGG, the binding signal in experiment [1] was 0.737; in experiment [2] it was 0.795.

For GTGAAC, the values for the binding signal in experiment [1] and in experiment [2] were 0.676 and 0.784, respectively.

Turning to GACCAT, the binding signal turned out to be 0.765 in experiment [1] and 0.81 in experiment [2].

For the sequence GAGCGA, the binding signal turned out to be 0.617 in experiment [1] and 0.606 in experiment [2].

For GCAGTA, the binding signal in experiment [1] worked out at 0.763; in experiment [2], 0.865.

With GGAGCT, the binding signal in experiment [1] came to 0.577; in experiment [2], 0.556.

Consider GCCGCG, for which the binding signal in experiment [1] came to 0.672; in experiment [2], 0.757.

Consider TCGGAT, for which the figures for the binding signal in experiment [1] and in experiment [2] were 0.698 and 0.492, respectively.

Consider GTCAGG, for which the values for the binding signal in experiment [1] and in experiment [2] were 0.433 and 0.548, respectively.

Turning to CCCAGC, the binding signal in experiment [1] was 0.845; in experiment [2] it was 0.847.

With GGTCAT, the binding signal in experiment [1] amounted to 0.668; in experiment [2], 0.824.

On to GCAGGA, for which the binding signal in experiment [1] turned out to be 0.604; in experiment [2] it was 0.905.

As for CGCATG, the binding signal in experiment [1] is 0.658; in experiment [2], 0.613.

Regarding CGGAGC, the binding signal in experiment [1] was 0.347; in experiment [2], 0.371.

Turning to GTATAG, the results for the binding signal in experiment [1] and in experiment [2] were 0.858 and 0.943, respectively.

Regarding GAGCCT, the binding signal worked out at 0.804 in experiment [1] and 0.744 in experiment [2].

ATGAGT: the binding signal in experiment [1] came to 0.612; in experiment [2], 0.653.

With GAGTGG, the binding signal is 0.575 in experiment [1] and 0.578 in experiment [2].

For GGCGGC, the binding signal stood at 0.459 in experiment [1] and 0.525 in experiment [2].

CGGGAC: the values for the binding signal in experiment [1] and in experiment [2] were 0.445 and 0.54, respectively.

In the case of AACGTG, the binding signal in experiment [1] was found to be 0.339; in experiment [2], 0.362.

Regarding ACCGTG, the binding signal is 0.212 in experiment [1] and 0.233 in experiment [2].

Turning to GTCAAG, the figures for the binding signal in experiment [1] and in experiment [2] were 0.647 and 0.767, respectively.

Regarding GTACCG, the values for the binding signal in experiment [1] and in experiment [2] were 0.546 and 0.814, respectively.

As to CCAGTG, the results for the binding signal in experiment [1] and in experiment [2] were 0.457 and 0.425, respectively.

In the case of AGGAGC, the binding signal in experiment [1] was 0.315; in experiment [2], 0.385.

With GACCAG, the binding signal in experiment [1] worked out at 0.64; in experiment [2], 0.605.

For CGGAGG, the binding signal in experiment [1] was 0.225; in experiment [2] it was 0.272.

On to GAGATC, for which the binding signal in experiment [1] is 0.553; in experiment [2], 0.441.

As to CGTCGG, the figures for the binding signal in experiment [1] and in experiment [2] were 0.39 and 0.41, respectively.

Take CGGTGT: the binding signal came out at 0.534 in experiment [1] and 0.737 in experiment [2].

In the case of GGGATA, the figures for the binding signal in experiment [1] and in experiment [2] were 0.827 and 0.764, respectively.

In the case of CGAGGC, the figures for the binding signal in experiment [1] and in experiment [2] were 0.648 and 0.626, respectively.

Turning to GCATAG, the binding signal in experiment [1] came out at 0.773; in experiment [2] it was 0.813.

Regarding GAGCCG, the binding signal in experiment [1] was 0.366; in experiment [2] it was 0.405.

Take GACATA: the binding signal in experiment [1] worked out at 0.756; in experiment [2], 0.856.

As to TGAGAC, the binding signal in experiment [1] is 0.437; in experiment [2] it was 0.479.

For ACAACG, the figures for the binding signal in experiment [1] and in experiment [2] were 0.743 and 0.925, respectively.

Regarding CGGGGT, the binding signal in experiment [1] is 0.518; in experiment [2], 0.645.

In the case of AGGTGC, the binding signal turned out to be 0.585 in experiment [1] and 0.637 in experiment [2].

Turning to CAATCG, the binding signal was 0.966 in experiment [1] and 0.835 in experiment [2].

AGATAG: the binding signal in experiment [1] was 0.911; in experiment [2] it was 0.797.

For the sequence CGTGTC, the binding signal in experiment [1] came out at 0.6; in experiment [2], 0.762.

As to GCGGGT, the binding signal was 0.496 in experiment [1] and 0.589 in experiment [2].

Take GATTGT: the binding signal in experiment [1] was 0.971; in experiment [2], 0.778.

Regarding GCAAGA, the binding signal in experiment [1] was 0.792; in experiment [2], 0.79.

Regarding CAGGCG, the binding signal in experiment [1] is 0.237; in experiment [2], 0.278.

Regarding CATGTG, the binding signal in experiment [1] was 0.685; in experiment [2] it was 0.786.

Take GCCGGT: the binding signal in experiment [1] worked out at 0.492; in experiment [2], 0.653.

Regarding GGTTGC, the binding signal in experiment [1] was determined as 0.649; in experiment [2] it was 0.89.

As for GATTGA, the binding signal in experiment [1] was found to be 0.935; in experiment [2], 0.934.

In the case of GGGCCG, the binding signal in experiment [1] was found to be 0.461; in experiment [2], 0.58.

Consider GAGTAC, for which the binding signal in experiment [1] came to 0.477; in experiment [2], 0.527.

As for CGCTGA, the binding signal in experiment [1] is 0.708; in experiment [2], 0.849.

CAGCCG: the binding signal was 0.549 in experiment [1] and 0.647 in experiment [2].

For the sequence CACGGT, the binding signal in experiment [1] amounted to 0.775; in experiment [2], 0.887.

Regarding GGAGTT, the results for the binding signal in experiment [1] and in experiment [2] were 0.416 and 0.471, respectively.

For TCGGTG, the binding signal was 0.486 in experiment [1] and 0.527 in experiment [2].

Turning to GAGTTT, the binding signal in experiment [1] stood at 0.627; in experiment [2] it was 0.622.

For CTGAGA, the binding signal in experiment [1] came to 0.912; in experiment [2] it was 0.744.

With GGGATC, the binding signal stood at 0.705 in experiment [1] and 0.614 in experiment [2].

With CAGGCT, the binding signal in experiment [1] amounted to 0.853; in experiment [2], 0.812.

In the case of GTAACG, the results for the binding signal in experiment [1] and in experiment [2] were 0.697 and 0.926, respectively.

As for GACTAG, the values for the binding signal in experiment [1] and in experiment [2] were 0.991 and 0.721, respectively.

In the case of TGAGTG, the binding signal in experiment [1] was found to be 0.407; in experiment [2], 0.427.

Consider CAGTCG, for which the figures for the binding signal in experiment [1] and in experiment [2] were 0.182 and 0.173, respectively.

Turning to CAGACG, the binding signal was found to be 0.474 in experiment [1] and 0.456 in experiment [2].

Turning to TGAGCG, the results for the binding signal in experiment [1] and in experiment [2] were 0.57 and 0.61, respectively.

As for GACGTC, the binding signal in experiment [1] was 0.619; in experiment [2], 0.841.

Take GGGTAG: the binding signal in experiment [1] is 0.581; in experiment [2], 0.62.

As for TGAGGG, the binding signal is 0.617 in experiment [1] and 0.614 in experiment [2].

With GCGAGC, the results for the binding signal in experiment [1] and in experiment [2] were 0.731 and 0.833, respectively.

AGCGTA: the binding signal came to 0.867 in experiment [1] and 0.908 in experiment [2].

On to CGCCGT, for which the binding signal in experiment [1] was determined as 0.77; in experiment [2], 0.846.

For the sequence GGGCGC, the results for the binding signal in experiment [1] and in experiment [2] were 0.445 and 0.568, respectively.

In the case of TGGGGC, the binding signal in experiment [1] stood at 0.646; in experiment [2] it was 0.739.

On to GTGCGA, for which the binding signal is 0.817 in experiment [1] and 0.837 in experiment [2].

Take CGGGTC: the results for the binding signal in experiment [1] and in experiment [2] were 0.512 and 0.745, respectively.
